The source gives many values for each of these; only a part stands here.
Tested on: E. coli AG100tet
Experiment: EtBr accumulation by real-time fluorometry

CC[n+]1c(-c2ccccc2)c2cc(N)ccc2c2ccc(N)cc21 [EtBr, ethidium bromide]
EtBr fluorescence (EtBr 2 µg/ml, cycle 16): 9.484 | EtBr fluorescence (EtBr 2 µg/ml, cycle 17): 9.566 | EtBr fluorescence (EtBr 2 µg/ml, cycle 18): 9.394 | EtBr fluorescence (EtBr 2 µg/ml, cycle 19): 9.44 | EtBr fluorescence (EtBr 2 µg/ml, cycle 20): 9.416 | EtBr fluorescence (EtBr 2 µg/ml, cycle 21): 9.532 | EtBr fluorescence (EtBr 2 µg/ml, cycle 22): 9.518 | EtBr fluorescence (EtBr 2 µg/ml, cycle 23): 9.556 | EtBr fluorescence (EtBr 2 µg/ml, cycle 24): 9.669 | EtBr fluorescence (EtBr 2 µg/ml, cycle 25): 9.459 | EtBr fluorescence (EtBr 2 µg/ml, cycle 26): 9.614 | EtBr fluorescence (EtBr 2 µg/ml, cycle 27): 9.534 | EtBr fluorescence (EtBr 2 µg/ml, cycle 28): 9.617 | EtBr fluorescence (EtBr 2 µg/ml, cycle 29): 9.539 | EtBr fluorescence (EtBr 2 µg/ml, cycle 30): 9.577 | EtBr fluorescence (EtBr 3 µg/ml, cycle 3): 12.4504 | EtBr fluorescence (EtBr 3 µg/ml, cycle 4): 12.8296 | EtBr fluorescence (EtBr 3 µg/ml, cycle 5): 12.8811 | EtBr fluorescence (EtBr 3 µg/ml, cycle 6): 12.9512 | EtBr fluorescence (EtBr 3 µg/ml, cycle 7): 13.0751 | EtBr fluorescence (EtBr 3 µg/ml, cycle 8): 13.1165 | EtBr fluorescence (EtBr 3 µg/ml, cycle 9): 13.268 | EtBr fluorescence (EtBr 3 µg/ml, cycle 10): 13.171 | EtBr fluorescence (EtBr 3 µg/ml, cycle 11): 13.3427 | EtBr fluorescence (EtBr 3 µg/ml, cycle 12): 13.3723 | EtBr fluorescence (EtBr 3 µg/ml, cycle 13): 13.4136 | EtBr fluorescence (EtBr 3 µg/ml, cycle 14): 13.3033 | EtBr fluorescence (EtBr 3 µg/ml, cycle 15): 13.4312 | EtBr fluorescence (EtBr 3 µg/ml, cycle 16): 13.4653 | EtBr fluorescence (EtBr 3 µg/ml, cycle 17): 13.4424 | EtBr fluorescence (EtBr 3 µg/ml, cycle 18): 13.4877 | EtBr fluorescence (EtBr 3 µg/ml, cycle 19): 13.7076 | EtBr fluorescence (EtBr 3 µg/ml, cycle 20): 13.6421 | EtBr fluorescence (EtBr 3 µg/ml, cycle 21): 13.5444 | EtBr fluorescence (EtBr 3 µg/ml, cycle 22): 13.7388 | EtBr fluorescence (EtBr 3 µg/ml, cycle 23): 13.5484 | EtBr fluorescence (EtBr 3 µg/ml, cycle 24): 13.6568 | EtBr fluorescence (EtBr 3 µg/ml, cycle 25): 13.5912 | EtBr fluorescence (EtBr 3 µg/ml, cycle 26): 13.7728 | EtBr fluorescence (EtBr 3 µg/ml, cycle 27): 13.7752 | EtBr fluorescence (EtBr 3 µg/ml, cycle 28): 13.6498 | EtBr fluorescence (EtBr 3 µg/ml, cycle 29): 13.7822 | EtBr fluorescence (EtBr 3 µg/ml, cycle 30): 13.916 | EtBr fluorescence (EtBr 4 µg/ml, cycle 1): 17.9061 | EtBr fluorescence (EtBr 4 µg/ml, cycle 2): 17.8905 | EtBr fluorescence (EtBr 4 µg/ml, cycle 3): 18.3623 | EtBr fluorescence (EtBr 4 µg/ml, cycle 4): 18.3619 | EtBr fluorescence (EtBr 4 µg/ml, cycle 5): 18.5489 | EtBr fluorescence (EtBr 4 µg/ml, cycle 6): 18.388 | EtBr fluorescence (EtBr 4 µg/ml, cycle 7): 18.8085 | EtBr fluorescence (EtBr 4 µg/ml, cycle 8): 18.7162 | EtBr fluorescence (EtBr 4 µg/ml, cycle 9): 18.9268 | EtBr fluorescence (EtBr 4 µg/ml, cycle 10): 18.8656 | EtBr fluorescence (EtBr 4 µg/ml, cycle 11): 19.0328 | EtBr fluorescence (EtBr 4 µg/ml, cycle 12): 19.0307 | EtBr fluorescence (EtBr 4 µg/ml, cycle 13): 19.0701 | EtBr fluorescence (EtBr 4 µg/ml, cycle 14): 19.0215 | EtBr fluorescence (EtBr 4 µg/ml, cycle 15): 19.2572 | EtBr fluorescence (EtBr 4 µg/ml, cycle 16): 18.9926 | EtBr fluorescence (EtBr 4 µg/ml, cycle 17): 19.2153 | EtBr fluorescence (EtBr 4 µg/ml, cycle 18): 19.3102 | EtBr fluorescence (EtBr 4 µg/ml, cycle 19): 19.3156 | EtBr fluorescence (EtBr 4 µg/ml, cycle 20): 19.4703 | EtBr fluorescence (EtBr 4 µg/ml, cycle 21): 19.3763 | EtBr fluorescence (EtBr 4 µg/ml, cycle 22): 19.4692 | EtBr fluorescence (EtBr 4 µg/ml, cycle 23): 19.4991 | EtBr fluorescence (EtBr 4 µg/ml, cycle 24): 19.424 | EtBr fluorescence (EtBr 4 µg/ml, cycle 25): 19.6 | EtBr fluorescence (EtBr 4 µg/ml, cycle 26): 19.628 | EtBr fluorescence (EtBr 4 µg/ml, cycle 27): 19.5233 | EtBr fluorescence (EtBr 4 µg/ml, cycle 28): 19.5677 | EtBr fluorescence (EtBr 4 µg/ml, cycle 29): 19.6495 | EtBr fluorescence (EtBr 4 µg/ml, cycle 30): 19.5712 | EtBr fluorescence (EtBr 5 µg/ml, cycle 1): 20.4609 | EtBr fluorescence (EtBr 5 µg/ml, cycle 2): 20.6092 | EtBr fluorescence (EtBr 5 µg/ml, cycle 3): 20.8018 | EtBr fluorescence (EtBr 5 µg/ml, cycle 4): 20.9508 | EtBr fluorescence (EtBr 5 µg/ml, cycle 5): 21.0952 | EtBr fluorescence (EtBr 5 µg/ml, cycle 6): 21.1881 | EtBr fluorescence (EtBr 5 µg/ml, cycle 7): 21.3359 | EtBr fluorescence (EtBr 5 µg/ml, cycle 8): 21.4701 | EtBr fluorescence (EtBr 5 µg/ml, cycle 9): 21.5744 | EtBr fluorescence (EtBr 5 µg/ml, cycle 10): 21.3397 | EtBr fluorescence (EtBr 5 µg/ml, cycle 11): 21.7699 | EtBr fluorescence (EtBr 5 µg/ml, cycle 12): 21.8291 | EtBr fluorescence (EtBr 5 µg/ml, cycle 13): 22.1219 | EtBr fluorescence (EtBr 5 µg/ml, cycle 14): 21.7965 | EtBr fluorescence (EtBr 5 µg/ml, cycle 15): 22.0119 | EtBr fluorescence (EtBr 5 µg/ml, cycle 16): 21.6498 | EtBr fluorescence (EtBr 5 µg/ml, cycle 17): 22.1598 | EtBr fluorescence (EtBr 5 µg/ml, cycle 18): 22.0116 | EtBr fluorescence (EtBr 5 µg/ml, cycle 19): 21.9197 | EtBr fluorescence (EtBr 5 µg/ml, cycle 20): 22.0952 | EtBr fluorescence (EtBr 5 µg/ml, cycle 21): 22.2888 | EtBr fluorescence (EtBr 5 µg/ml, cycle 22): 22.4138 | EtBr fluorescence (EtBr 5 µg/ml, cycle 23): 22.4435 | EtBr fluorescence (EtBr 5 µg/ml, cycle 24): 22.4842 | EtBr fluorescence (EtBr 5 µg/ml, cycle 25): 22.2992 | EtBr fluorescence (EtBr 5 µg/ml, cycle 26): 22.463 | EtBr fluorescence (EtBr 5 µg/ml, cycle 27): 22.6635 | EtBr fluorescence (EtBr 5 µg/ml, cycle 28): 22.6764 | EtBr fluorescence (EtBr 5 µg/ml, cycle 29): 22.5346 | EtBr fluorescence (EtBr 5 µg/ml, cycle 30): 22.7483

Source: paper PMC5433425 (PeerJ, 2017)
